# Measurements taken from the supplement of paper PMC8728848.
# The list shows a part of the results.
# B1: CREG (Mus musculus), O88668 (protein)
# chain: MAARAPELARSLLAALLAPALVALLVSPASGRGGRDHGDWDVDRRLPPLPPREDGPRVARFVTHVSDWGSLATISTIKEVRGWPFADIISISDGPPGEGTGEPYMYLSPLQQAVSDLQENPEATLTMSLAQTVYCRNHGFDPQSPLCVHIMMSGTVTKVNKTEEDYARDSLFVRHPEMKHWPSSHNWFFAKLKISRIWVLDYFGGPKVVTPEEYFNVTLQ
# Tests used:
# Test in all cases: glycan array binding signal (z-score within array); higher = stronger binding
# Details in all cases: glycan notation: IUPAC condensed, linker removed
# [1] = target: Fuc(a1-2)[Gal(a1-3)]Gal
# Method in brief: (§1)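 Glycan array data came from 3228 arrays in the Consortium for Functional Glycomics database, and only arrays with an available protein sequence were kept. Glycan names were put into IUPAC-condensed notation, and columns mapping to the same glycan were averaged. The binding signal is a within-array Z-score, averaged across arrays of one protein sequence run at different concentrations or buffers and across linkers. A negative Z-score can be read as non-binding.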
# [2] = target: Fuc(a1-2)[Gal(a1-3)]Gal(b1-3)GlcNAc
# Method in brief: as §1
# [3] = target: Fuc(a1-2)[Gal(a1-3)]Gal(b1-3)GlcNAc(b1-2)Man(a1-3)[Fuc(a1-2)[Gal(a1-3)]Gal(b1-3)GlcNAc(b1-2)Man(a1-6)]Man(b1-4)GlcNAc(b1-4)GlcNAc
# Method in brief: as §1
# [4] = target: Fuc(a1-2)[Gal(a1-3)]Gal(b1-4)Glc
# Method in brief: as §1
# [5] = target: Fuc(a1-2)[Gal(a1-3)]Gal(b1-4)GlcNAc
# Method in brief: as §1
# [6] = target: Fuc(a1-2)[Gal(a1-3)]Gal(b1-4)GlcNAc(b1-2)Man(a1-3)[Fuc(a1-2)[Gal(a1-3)]Gal(b1-4)GlcNAc(b1-2)Man(a1-6)]Man(b1-4)GlcNAc(b1-4)GlcNAc
# Method in brief: as §1
# [7] = target: Fuc(a1-2)[Gal(a1-3)]Gal(b1-4)[Fuc(a1-3)]GlcNAc
# Method in brief: as §1
# [8] = target: Fuc(a1-2)[Gal(a1-4)]Gal(b1-4)GlcNAc
# Method in brief: as §1
# [9] = target: Fuc(a1-2)[GalNAc(a1-3)]Gal
# Method in brief: as §1
# [10] = target: Fuc(a1-2)[GalNAc(a1-3)]Gal(b1-3)GalNAc(a1-3)[Fuc(a1-2)]Gal(b1-4)GlcNAc
# Method in brief: as §1
# [11] = target: Fuc(a1-2)[GalNAc(a1-3)]Gal(b1-3)GlcNAc
# Method in brief: as §1
# [12] = target: Fuc(a1-2)[GalNAc(a1-3)]Gal(b1-3)GlcNAc(b1-2)Man(a1-3)[Fuc(a1-2)[GalNAc(a1-3)]Gal(b1-3)GlcNAc(b1-2)Man(a1-6)]Man(b1-4)GlcNAc(b1-4)GlcNAc
# Method in brief: as §1
# [13] = target: Fuc(a1-2)[GalNAc(a1-3)]Gal(b1-4)Glc
# Method in brief: as §1
# [14] = target: Fuc(a1-2)[GalNAc(a1-3)]Gal(b1-4)GlcNAc
# Method in brief: as §1
# [15] = target: Fuc(a1-2)[GalNAc(a1-3)]Gal(b1-4)GlcNAc(b1-2)Man(a1-3)[Fuc(a1-2)[GalNAc(a1-3)]Gal(b1-4)GlcNAc(b1-2)Man(a1-6)]Man(b1-4)GlcNAc(b1-4)GlcNAc
# Method in brief: as §1
# [16] = target: Fuc(a1-2)[GalNAc(a1-3)]Gal(b1-4)GlcNAc(b1-3)Gal(b1-4)GlcNAc
# Method in brief: as §1
# [17] = target: Fuc(a1-2)[GalNAc(a1-3)]Gal(b1-4)GlcNAc(b1-3)Gal(b1-4)GlcNAc(b1-3)Gal(b1-4)GlcNAc
# Method in brief: as §1
# [18] = target: Fuc(a1-2)[GalNAc(a1-3)]Gal(b1-4)[Fuc(a1-3)]GlcNAc
# Method in brief: as §1
# [19] = target: Fuc(a1-2)[GalNAc(a1-4)]Gal(b1-4)GlcNAc
# Method in brief: as §1
# [20] = target: Fuc(a1-2)[GalNAc(b1-3)]Gal
# Method in brief: as §1
# [21] = target: Fuc(a1-3)GlcNAc
# Method in brief: as §1
# [22] = target: Fuc(a1-3)[Gal(b1-4)]Glc6S
# Method in brief: as §1
# [23] = target: Fuc(a1-3)[Gal(b1-4)]GlcNAc
# Method in brief: as §1
# [24] = target: Fuc(a1-3)[Gal(b1-4)]GlcNAc(b1-2)Man(a1-3)[Fuc(a1-3)[Gal(b1-4)]GlcNAc(b1-2)Man(a1-6)]Man(b1-4)GlcNAc(b1-4)GlcNAc
# Method in brief: as §1
# [25] = target: Fuc(a1-3)[Gal(b1-4)]GlcNAc(b1-3)Gal(b1-3)[Fuc(a1-4)]GlcNAc
# Method in brief: as §1
# [26] = target: Fuc(a1-3)[Gal(b1-4)]GlcNAc(b1-3)GalNAc
# Method in brief: as §1
# [27] = target: Fuc(a1-3)[Gal(b1-4)]GlcNAc(b1-4)Gal(b1-4)[Fuc(a1-3)]GlcNAc
# Method in brief: as §1
# [28] = target: Fuc(a1-3)[Gal(b1-4)]GlcNAc(b1-4)Gal(b1-4)[Fuc(a1-3)]GlcNAc(b1-4)Gal(b1-4)[Fuc(a1-3)]GlcNAc
# Method in brief: as §1
# [29] = target: Fuc(a1-3)[Gal(b1-4)]GlcNAc(b1-6)[Gal(b1-3)GlcNAc(b1-3)]Gal(b1-4)Glc
# Method in brief: as §1
# [30] = target: Fuc(a1-3)[Gal(b1-4)]GlcNAc6S
# Method in brief: as §1
binder,measurement,setting,value
B1,glycan array binding signal (z-score),[1],-0.992
same,glycan array binding signal (z-score),[2],0.989
same,glycan array binding signal (z-score),[3],-0.38
same,glycan array binding signal (z-score),[4],-1.24
same,glycan array binding signal (z-score),[5],1.36
same,glycan array binding signal (z-score),[6],2.76
same,glycan array binding signal (z-score),[7],0.58
same,glycan array binding signal (z-score),[8],0.699
same,glycan array binding signal (z-score),[9],-0.068
same,glycan array binding signal (z-score),[10],-0.99
same,glycan array binding signal (z-score),[11],-0.28
same,glycan array binding signal (z-score),[12],-0.148
same,glycan array binding signal (z-score),[13],0.375
same,glycan array binding signal (z-score),[14],-0.002
same,glycan array binding signal (z-score),[15],-0.239
same,glycan array binding signal (z-score),[16],0.281
same,glycan array binding signal (z-score),[17],0.705
same,glycan array binding signal (z-score),[18],2.02
same,glycan array binding signal (z-score),[19],0.128
same,glycan array binding signal (z-score),[20],-0.881
same,glycan array binding signal (z-score),[21],0.475
same,glycan array binding signal (z-score),[22],-0.889
same,glycan array binding signal (z-score),[23],-0.783
same,glycan array binding signal (z-score),[24],0.61
same,glycan array binding signal (z-score),[25],-0.359
same,glycan array binding signal (z-score),[26],1.17
same,glycan array binding signal (z-score),[27],2.95
same,glycan array binding signal (z-score),[28],-0.416
same,glycan array binding signal (z-score),[29],-0.563
same,glycan array binding signal (z-score),[30],1.21

# Random excerpt: two entries already listed
binder,measurement,setting,value
B1,glycan array binding signal (z-score),[12],-0.148
same,glycan array binding signal (z-score),[6],2.76
